According to paper PMC11852049, “Impact of Hydrophobic, Hydrophilic, and Mucus-Binding Motifs on the Therapeutic Potential of Ceftazidime Analogs for Pulmonary Administration” (Antibiotics, 2025):

Tested on: human bronchial epithelial cells (HBECs)
Test: Transepithelial electrical resistance (TEER) of HBEC cultures at 24 h
[1] = compound set 1, lung donor N715, at 24 h
[2] = compound set 1, lung donor N716, at 24 h
[3] = compound set 1, lung donor N720, at 24 h
[4] = compound set 2, lung donor KC29, at 24 h
[5] = compound set 2, lung donor L2, at 24 h
[6] = compound set 2, lung donor L8 (donor excluded from Papp analysis), at 24 h
[7] = compound set 2, lung donor L224, at 24 h

Structure (SMILES) | TEER [1] | TEER [2] | TEER [3] | TEER [4] | TEER [5] | TEER [6] | TEER [7]
CC(C)(O/N=C(\C(=O)N[C@@H]1C(=O)N2C(C(=O)[O-])=C(C[n+]3ccccc3)CS[C@H]12)c1csc(N)n1)C(=O)O [Ceftazidime pentahydrate, ceftazidime pentahydrate, reference compound] | 740 Ωcm^2 | 590 Ωcm^2 | 760 Ωcm^2 | 812 Ωcm^2 | 1008 Ωcm^2 | 318 Ωcm^2 | 477 Ωcm^2
CCCCNC(=O)C(C)(C)O/N=C(/C(=O)N[C@@H]1C(=O)N2C(C(=O)[O-])=C(C[n+]3ccccc3)CS[C@H]12)c1csc(N)n1 [Compound 1, n-butyl-ceftazidime] | 690 Ωcm^2 | 760 Ωcm^2 | 670 Ωcm^2 | – | – | – | –
CC(C)(O/N=C(/C(=O)N[C@@H]1C(=O)N2C(C(=O)[O-])=C(C[n+]3ccccc3)CS[C@H]12)c1csc(N)n1)C(=O)NCCc1ccccc1 [Compound 3] | – | – | – | 1000 Ωcm^2 | 1033 Ωcm^2 | 379 Ωcm^2 | 657 Ωcm^2
CC(C)(O/N=C(/C(=O)N[C@@H]1C(=O)N2C(C(=O)[O-])=C(C[n+]3ccccc3)CS[C@H]12)c1csc(N)n1)C(=O)NCCc1cc(O)c(O)cc1Cl [Compound 4] | – | – | – | 674 Ωcm^2 | 935 Ωcm^2 | 403 Ωcm^2 | 479 Ωcm^2
CC(C)(O/N=C(/C(=O)N[C@@H]1C(=O)N2C(C(=O)[O-])=C(C[n+]3ccccc3)CS[C@H]12)c1csc(N)n1)C(=O)NCCCS(=O)(=O)c1ccccc1 [Compound 5] | – | – | – | 804 Ωcm^2 | 1070 Ωcm^2 | 337 Ωcm^2 | 614 Ωcm^2
CC(C)(O/N=C(/C(=O)N[C@@H]1C(=O)N2C(C(=O)[O-])=C(C[n+]3ccccc3)CS[C@H]12)c1csc(N)n1)C(=O)NCCCCCCOCCCCc1ccccc1 [Compound 6] | – | – | – | 464 Ωcm^2 | 676 Ωcm^2 | 372 Ωcm^2 | 448 Ωcm^2
COCCOCCOCCNC(=O)C(C)(C)O/N=C(/C(=O)N[C@@H]1C(=O)N2C(C(=O)[O-])=C(C[n+]3ccccc3)CS[C@H]12)c1csc(N)n1 [Compound 7] | – | – | – | 1197 Ωcm^2 | 950 Ωcm^2 | 306 Ωcm^2 | 578 Ωcm^2
COCCOCCOCCOCCOCCNC(=O)C(C)(C)O/N=C(/C(=O)N[C@@H]1C(=O)N2C(C(=O)[O-])=C(C[n+]3ccccc3)CS[C@H]12)c1csc(N)n1 [Compound 8] | 840 Ωcm^2 | 630 Ωcm^2 | 880 Ωcm^2 | – | – | – | –
COCCOCCOCCOCCOCCOCCOCCOCCNC(=O)C(C)(C)O/N=C(/C(=O)N[C@@H]1C(=O)N2C(C(=O)[O-])=C(C[n+]3ccccc3)CS[C@H]12)c1csc(N)n1 [Compound 9] | 950 Ωcm^2 | 700 Ωcm^2 | 950 Ωcm^2 | – | – | – | –
CC(C)(O/N=C(/C(=O)N[C@@H]1C(=O)N2C(C(=O)[O-])=C(C[n+]3ccccc3)CS[C@H]12)c1csc(N)n1)C(=O)NC1C(O)O[C@H](CO)[C@@H](O)[C@@H]1O (stereo partly shown) [Compound 10] | – | – | – | 858 Ωcm^2 | 919 Ωcm^2 | 313 Ωcm^2 | 388 Ωcm^2
CCN(CC)CCNC(=O)C(C)(C)O/N=C(/C(=O)N[C@@H]1C(=O)N2C(C(=O)[O-])=C(C[n+]3ccccc3)CS[C@H]12)c1csc(N)n1 [Compound 11] | 950 Ωcm^2 | 630 Ωcm^2 | 940 Ωcm^2 | – | – | – | –
CN1CCN(CCNC(=O)C(C)(C)O/N=C(/C(=O)N[C@@H]2C(=O)N3C(C(=O)[O-])=C(C[n+]4ccccc4)CS[C@H]23)c2csc(N)n2)CC1 [Compound 12] | – | – | – | 1002 Ωcm^2 | 1194 Ωcm^2 | 495 Ωcm^2 | 585 Ωcm^2
CC(C)(O/N=C(/C(=O)N[C@@H]1C(=O)N2C(C(=O)[O-])=C(C[n+]3ccccc3)CS[C@H]12)c1csc(N)n1)C(=O)NC(CCC(=O)O)C(=O)O (stereo partly shown) [Compound 13] | – | – | – | 672 Ωcm^2 | 818 Ωcm^2 | 245 Ωcm^2 | 864 Ωcm^2
CC(C)(O/N=C(/C(=O)N[C@@H]1C(=O)N2C(C(=O)[O-])=C(C[n+]3ccccc3)CS[C@H]12)c1csc(N)n1)C(=O)NCCNc1ccnc(N)n1 [Compound 14] | – | – | – | 734 Ωcm^2 | 1076 Ωcm^2 | 429 Ωcm^2 | 451 Ωcm^2
CC(C)(O/N=C(/C(=O)N[C@@H]1C(=O)N2C(C(=O)[O-])=C(C[n+]3ccccc3)CS[C@H]12)c1csc(N)n1)C(=O)NCCOCCOCCOCCOCCOCCNc1ccnc(N)n1 [Compound 15, PEG5-pyrimidin-2-amine-ceftazidime] | 870 Ωcm^2 | 720 Ωcm^2 | 930 Ωcm^2 | – | – | – | –
CC(C)(O/N=C(/C(=O)N[C@@H]1C(=O)N2C(C(=O)[O-])=C(C[n+]3ccccc3)CS[C@H]12)c1csc(N)n1)C(=O)NCCCSc1ccc(B(O)O)cc1 [Compound 16, 4-propylthiophenyl boronic acid-ceftazidime] | – | – | – | 775 Ωcm^2 | 933 Ωcm^2 | 410 Ωcm^2 | 691 Ωcm^2
CC(C)(O/N=C(/C(=O)N[C@@H]1C(=O)N2C(C(=O)[O-])=C(C[n+]3ccccc3)CS[C@H]12)c1csc(N)n1)C(=O)NCCCS(=O)(=O)c1ccc(B(O)O)cc1 [Compound 17] | – | – | – | 857 Ωcm^2 | 1019 Ωcm^2 | 486 Ωcm^2 | 502 Ωcm^2
CC(C)(O/N=C(/C(=O)N[C@@H]1C(=O)N2C(C(=O)[O-])=C(C[n+]3ccccc3)CS[C@H]12)c1csc(N)n1)C(=O)NCCNC(=O)c1ccc(B(O)O)cc1 [Compound 18] | – | – | – | 795 Ωcm^2 | 1019 Ωcm^2 | 255 Ωcm^2 | 421 Ωcm^2
